Record: PubChem BioAssay AID743454 (Peter MacCallum Cancer Centre, 2014)

Assay: 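Knock-downs lowering viability or raising caspase 3/7 activity in vorinostat-treated resistant cells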 (primary screen)
System: human HCT116-VR colon cancer cells, selected for vorinostat resistance
Reagent: siRNA pool against human genes, 40 nM siRNA pool
Duration: vorinostat for 24 h, read-out about 72 h after transfection
Treatment: vorinostat at 2.5 µM final
Read-out: 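Cell viability by CellTiter-Fluor and caspase 3/7 activity by luminescence, each scaled to mock wells per plate, duplicates averaged, then robust z-scored over all plates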
Direction: viability robust z-score: higher = more viable cells than screen typical; caspase robust z-score: higher = more caspase 3/7 activity than screen typical
Active means: 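a knock-down is a hit when classed RV1 or RV2 for lowered viability, or CA1 or CA2 for caspase activation; those lethal without drug were dropped; hits were retested singly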
This is a random part of about 18,000 deposited reagents. Of all reagents, 450 (2.5%) got an active call. 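Single biological run; no consistent viability z cut-off exists, so the class columns, not z-scores, define the calls.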 A number with no mark means an inactive call.

After knock-down of GLRA2 (glycine receptor alpha 2) [SID152155871] the results were viability hit class no change; caspase hit class no change; viability robust z-score -0.72; caspase robust z-score 4.72.
Knock-down of HAO2 (hydroxyacid oxidase 2) [SID152151776] gave: viability hit class no change; caspase hit class no change; viability robust z-score -0.3; caspase robust z-score 0.3.
Silencing of STATH (statherin) [SID135622362] gave: viability hit class no change; caspase hit class no change; viability robust z-score 0.91; caspase robust z-score -0.22.
After knock-down of C1QTNF7 (C1q and TNF related 7) [SID135623187] the results were viability hit class RV2 (reduced viability) (active); caspase hit class no change; viability robust z-score -4.06; caspase robust z-score -1.48.
Against OR8U8 (olfactory receptor family 8 subfamily U member 8) [SID135625174], the entry reads viability hit class no change; caspase hit class no change; viability robust z-score -0.36; caspase robust z-score -0.18.
Depletion of NRXN1 (neurexin 1) [SID152155248] resulted in: viability hit class no change; caspase hit class no change; viability robust z-score 0.48; caspase robust z-score -0.27.
For BAG5 (BAG cochaperone 5) [SID152150432], the values are viability hit class no change; caspase hit class no change; viability robust z-score 0.02; caspase robust z-score -0.73.
Against GPR151 (G protein-coupled receptor 151) [SID152149689], the values are viability hit class no change; caspase hit class no change; viability robust z-score 0.41; caspase robust z-score -0.02.

2 successive records from above, for reference:
GLRA2 (glycine receptor alpha 2) [SID152155871] — viability hit class = no change; caspase hit class = no change; viability robust z-score = -0.72; caspase robust z-score = 4.72
HAO2 (hydroxyacid oxidase 2) [SID152151776] — viability hit class = no change; caspase hit class = no change; viability robust z-score = -0.3; caspase robust z-score = 0.3

The listing continues:
For COL6A3 (collagen type VI alpha 3 chain) [SID135620714], the entry reads viability hit class no change; caspase hit class no change; viability robust z-score -0.46; caspase robust z-score 1.58.
MERTK (MER proto-oncogene, tyrosine kinase) [SID135620626] scored viability hit class no change; caspase hit class no change; viability robust z-score -0.53; caspase robust z-score 3.37.
After knock-down of WNT7B (Wnt family member 7B) [SID134310057], the record shows viability hit class no change; caspase hit class no change; viability robust z-score -1.8; caspase robust z-score 4.13.
ZNF549 (zinc finger protein 549) [SID134320116] showed viability hit class no change; caspase hit class no change; viability robust z-score -1.1; caspase robust z-score -0.8.
